Assay results as given in the supplement of paper PMC10849652.
The list shows a part of the results.

Chains of the proteins cited; added tags and fusions are not shown. Lines headed by an entry give the natural chain unless they say otherwise; changes in a name come on top.
UniProt Q68DK7: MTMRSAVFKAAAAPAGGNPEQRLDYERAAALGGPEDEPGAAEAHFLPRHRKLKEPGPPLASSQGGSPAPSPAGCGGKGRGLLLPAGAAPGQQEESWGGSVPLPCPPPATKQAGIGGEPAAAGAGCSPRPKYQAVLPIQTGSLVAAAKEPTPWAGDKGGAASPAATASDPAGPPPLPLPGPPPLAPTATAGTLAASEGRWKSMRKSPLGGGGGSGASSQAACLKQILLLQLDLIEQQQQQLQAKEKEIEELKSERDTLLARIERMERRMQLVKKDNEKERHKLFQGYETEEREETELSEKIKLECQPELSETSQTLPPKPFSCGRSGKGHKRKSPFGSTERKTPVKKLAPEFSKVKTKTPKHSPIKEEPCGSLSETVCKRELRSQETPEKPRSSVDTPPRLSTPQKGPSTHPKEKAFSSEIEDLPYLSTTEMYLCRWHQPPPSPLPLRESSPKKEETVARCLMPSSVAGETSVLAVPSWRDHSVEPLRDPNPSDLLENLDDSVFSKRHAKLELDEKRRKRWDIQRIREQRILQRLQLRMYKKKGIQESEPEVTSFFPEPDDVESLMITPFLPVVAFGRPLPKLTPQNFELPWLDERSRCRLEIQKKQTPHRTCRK
UniProt P03915, whole entry, looked up: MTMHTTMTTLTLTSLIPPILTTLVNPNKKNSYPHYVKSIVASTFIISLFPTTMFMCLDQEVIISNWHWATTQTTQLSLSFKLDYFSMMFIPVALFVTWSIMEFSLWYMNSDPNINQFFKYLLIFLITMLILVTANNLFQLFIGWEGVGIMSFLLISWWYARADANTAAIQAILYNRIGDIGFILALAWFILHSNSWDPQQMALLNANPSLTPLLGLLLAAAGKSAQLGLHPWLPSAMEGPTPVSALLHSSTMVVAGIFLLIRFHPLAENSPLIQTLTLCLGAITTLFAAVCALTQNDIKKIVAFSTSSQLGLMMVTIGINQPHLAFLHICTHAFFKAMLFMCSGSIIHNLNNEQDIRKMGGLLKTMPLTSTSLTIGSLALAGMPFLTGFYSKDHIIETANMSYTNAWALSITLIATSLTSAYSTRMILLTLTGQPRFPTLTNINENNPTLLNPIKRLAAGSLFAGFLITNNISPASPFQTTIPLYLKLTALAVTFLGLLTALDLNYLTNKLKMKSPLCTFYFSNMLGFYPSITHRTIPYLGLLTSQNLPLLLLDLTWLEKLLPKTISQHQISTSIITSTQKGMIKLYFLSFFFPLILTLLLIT
UniProt Q15390: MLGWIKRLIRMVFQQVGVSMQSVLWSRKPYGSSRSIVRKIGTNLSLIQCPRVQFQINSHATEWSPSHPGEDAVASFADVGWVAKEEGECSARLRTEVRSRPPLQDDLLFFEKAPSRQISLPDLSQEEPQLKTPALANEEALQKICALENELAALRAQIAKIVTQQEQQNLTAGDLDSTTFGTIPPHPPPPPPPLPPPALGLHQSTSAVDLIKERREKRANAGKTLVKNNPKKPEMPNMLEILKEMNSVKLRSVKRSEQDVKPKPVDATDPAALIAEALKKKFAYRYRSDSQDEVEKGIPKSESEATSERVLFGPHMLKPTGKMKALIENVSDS
UniProt Q2M296: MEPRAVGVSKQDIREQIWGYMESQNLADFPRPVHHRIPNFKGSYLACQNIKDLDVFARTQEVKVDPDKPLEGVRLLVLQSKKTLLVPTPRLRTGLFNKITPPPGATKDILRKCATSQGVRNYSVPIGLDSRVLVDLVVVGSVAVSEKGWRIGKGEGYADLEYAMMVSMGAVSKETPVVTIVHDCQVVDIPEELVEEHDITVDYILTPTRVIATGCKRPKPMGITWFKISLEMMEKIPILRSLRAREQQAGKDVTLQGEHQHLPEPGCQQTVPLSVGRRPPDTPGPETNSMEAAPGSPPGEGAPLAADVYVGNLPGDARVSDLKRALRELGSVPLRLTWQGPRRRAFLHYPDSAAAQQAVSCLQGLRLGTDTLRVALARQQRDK
UniProt Q9C0I1: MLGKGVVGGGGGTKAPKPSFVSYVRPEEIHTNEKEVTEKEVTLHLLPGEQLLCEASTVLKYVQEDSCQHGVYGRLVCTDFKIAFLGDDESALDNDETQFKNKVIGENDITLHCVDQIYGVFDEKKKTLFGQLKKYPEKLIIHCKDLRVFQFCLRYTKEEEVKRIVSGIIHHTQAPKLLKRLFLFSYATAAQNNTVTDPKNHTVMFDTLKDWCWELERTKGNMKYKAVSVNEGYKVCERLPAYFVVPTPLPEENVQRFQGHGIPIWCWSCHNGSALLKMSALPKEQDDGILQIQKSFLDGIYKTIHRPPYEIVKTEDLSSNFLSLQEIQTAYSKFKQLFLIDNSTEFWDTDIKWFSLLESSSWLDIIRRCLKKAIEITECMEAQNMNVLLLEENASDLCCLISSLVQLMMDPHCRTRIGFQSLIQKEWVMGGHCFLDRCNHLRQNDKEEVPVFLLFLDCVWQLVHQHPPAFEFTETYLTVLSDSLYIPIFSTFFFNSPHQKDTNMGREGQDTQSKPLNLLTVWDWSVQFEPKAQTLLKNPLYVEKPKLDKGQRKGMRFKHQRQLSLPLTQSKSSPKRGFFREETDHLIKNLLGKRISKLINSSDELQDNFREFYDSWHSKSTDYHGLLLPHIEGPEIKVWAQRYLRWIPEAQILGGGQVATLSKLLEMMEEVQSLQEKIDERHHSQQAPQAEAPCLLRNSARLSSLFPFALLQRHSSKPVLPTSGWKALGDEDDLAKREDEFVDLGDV
UniProt Q9Y6C9: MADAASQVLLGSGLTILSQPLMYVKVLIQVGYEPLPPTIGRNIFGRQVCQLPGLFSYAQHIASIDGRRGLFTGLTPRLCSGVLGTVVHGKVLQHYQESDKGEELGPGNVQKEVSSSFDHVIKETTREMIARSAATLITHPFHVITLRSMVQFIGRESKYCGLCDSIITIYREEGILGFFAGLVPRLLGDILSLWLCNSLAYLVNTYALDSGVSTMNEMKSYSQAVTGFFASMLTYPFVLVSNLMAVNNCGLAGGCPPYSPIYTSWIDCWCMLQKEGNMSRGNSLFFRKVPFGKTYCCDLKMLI
UniProt Q9ULH7: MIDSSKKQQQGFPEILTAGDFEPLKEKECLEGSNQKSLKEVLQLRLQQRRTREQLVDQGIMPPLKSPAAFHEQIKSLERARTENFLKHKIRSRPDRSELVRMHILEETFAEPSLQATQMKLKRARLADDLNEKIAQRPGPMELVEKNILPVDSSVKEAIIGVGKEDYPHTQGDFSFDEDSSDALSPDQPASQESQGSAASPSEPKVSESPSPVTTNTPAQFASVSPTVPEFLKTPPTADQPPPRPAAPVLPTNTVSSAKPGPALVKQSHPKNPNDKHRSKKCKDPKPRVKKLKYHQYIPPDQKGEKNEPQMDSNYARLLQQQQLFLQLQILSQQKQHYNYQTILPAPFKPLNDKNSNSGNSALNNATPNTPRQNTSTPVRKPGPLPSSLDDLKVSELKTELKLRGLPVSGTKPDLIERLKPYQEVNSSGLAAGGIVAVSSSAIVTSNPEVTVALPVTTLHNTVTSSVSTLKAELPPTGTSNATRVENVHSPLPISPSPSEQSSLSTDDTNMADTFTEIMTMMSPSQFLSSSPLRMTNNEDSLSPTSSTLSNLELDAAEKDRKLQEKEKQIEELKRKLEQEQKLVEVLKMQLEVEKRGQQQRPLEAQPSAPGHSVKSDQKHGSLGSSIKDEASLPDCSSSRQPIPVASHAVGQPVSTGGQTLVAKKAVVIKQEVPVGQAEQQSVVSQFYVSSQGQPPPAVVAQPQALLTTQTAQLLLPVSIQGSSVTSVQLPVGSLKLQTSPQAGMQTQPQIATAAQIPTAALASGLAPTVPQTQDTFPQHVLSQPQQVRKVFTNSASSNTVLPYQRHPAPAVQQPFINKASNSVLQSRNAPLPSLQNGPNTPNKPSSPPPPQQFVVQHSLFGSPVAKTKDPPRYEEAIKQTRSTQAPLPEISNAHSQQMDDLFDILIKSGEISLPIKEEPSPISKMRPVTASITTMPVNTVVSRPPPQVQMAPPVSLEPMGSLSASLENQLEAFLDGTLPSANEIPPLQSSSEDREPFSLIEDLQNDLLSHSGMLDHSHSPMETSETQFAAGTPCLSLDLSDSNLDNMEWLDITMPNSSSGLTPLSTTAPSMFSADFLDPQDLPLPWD
UniProt Q15800: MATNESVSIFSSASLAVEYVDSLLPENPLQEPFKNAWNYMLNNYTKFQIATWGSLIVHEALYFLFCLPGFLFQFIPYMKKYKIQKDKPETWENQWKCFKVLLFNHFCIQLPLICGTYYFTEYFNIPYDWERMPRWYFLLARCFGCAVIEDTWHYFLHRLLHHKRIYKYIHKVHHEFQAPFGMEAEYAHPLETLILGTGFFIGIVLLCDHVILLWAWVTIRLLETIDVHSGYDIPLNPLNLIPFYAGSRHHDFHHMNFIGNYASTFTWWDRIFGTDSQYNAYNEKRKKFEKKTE
UniProt Q9UBK8: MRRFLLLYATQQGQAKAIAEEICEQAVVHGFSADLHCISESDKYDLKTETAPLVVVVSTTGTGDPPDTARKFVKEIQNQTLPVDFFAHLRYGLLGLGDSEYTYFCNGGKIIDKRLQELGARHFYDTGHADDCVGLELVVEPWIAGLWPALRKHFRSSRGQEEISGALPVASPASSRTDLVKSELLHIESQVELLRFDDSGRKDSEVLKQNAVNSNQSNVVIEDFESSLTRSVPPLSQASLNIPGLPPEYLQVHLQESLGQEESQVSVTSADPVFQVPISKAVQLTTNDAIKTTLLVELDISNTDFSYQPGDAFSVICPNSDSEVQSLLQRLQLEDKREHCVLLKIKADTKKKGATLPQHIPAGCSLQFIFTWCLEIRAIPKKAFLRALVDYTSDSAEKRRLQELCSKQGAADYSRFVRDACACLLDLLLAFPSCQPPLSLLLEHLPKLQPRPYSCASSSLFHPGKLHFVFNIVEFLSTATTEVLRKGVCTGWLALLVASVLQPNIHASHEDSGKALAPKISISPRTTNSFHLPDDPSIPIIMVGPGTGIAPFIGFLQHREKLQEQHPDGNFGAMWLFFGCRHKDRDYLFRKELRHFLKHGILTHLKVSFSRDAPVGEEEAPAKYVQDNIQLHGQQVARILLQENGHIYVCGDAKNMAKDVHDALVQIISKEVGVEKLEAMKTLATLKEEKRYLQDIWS
UniProt Q9UJ68: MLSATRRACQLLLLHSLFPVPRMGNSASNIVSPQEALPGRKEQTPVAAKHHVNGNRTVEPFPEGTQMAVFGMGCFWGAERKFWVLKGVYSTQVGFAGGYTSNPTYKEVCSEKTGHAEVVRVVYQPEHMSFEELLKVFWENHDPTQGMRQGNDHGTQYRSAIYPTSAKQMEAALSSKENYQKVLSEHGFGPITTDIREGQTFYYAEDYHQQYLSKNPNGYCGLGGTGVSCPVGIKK
UniProt O43196: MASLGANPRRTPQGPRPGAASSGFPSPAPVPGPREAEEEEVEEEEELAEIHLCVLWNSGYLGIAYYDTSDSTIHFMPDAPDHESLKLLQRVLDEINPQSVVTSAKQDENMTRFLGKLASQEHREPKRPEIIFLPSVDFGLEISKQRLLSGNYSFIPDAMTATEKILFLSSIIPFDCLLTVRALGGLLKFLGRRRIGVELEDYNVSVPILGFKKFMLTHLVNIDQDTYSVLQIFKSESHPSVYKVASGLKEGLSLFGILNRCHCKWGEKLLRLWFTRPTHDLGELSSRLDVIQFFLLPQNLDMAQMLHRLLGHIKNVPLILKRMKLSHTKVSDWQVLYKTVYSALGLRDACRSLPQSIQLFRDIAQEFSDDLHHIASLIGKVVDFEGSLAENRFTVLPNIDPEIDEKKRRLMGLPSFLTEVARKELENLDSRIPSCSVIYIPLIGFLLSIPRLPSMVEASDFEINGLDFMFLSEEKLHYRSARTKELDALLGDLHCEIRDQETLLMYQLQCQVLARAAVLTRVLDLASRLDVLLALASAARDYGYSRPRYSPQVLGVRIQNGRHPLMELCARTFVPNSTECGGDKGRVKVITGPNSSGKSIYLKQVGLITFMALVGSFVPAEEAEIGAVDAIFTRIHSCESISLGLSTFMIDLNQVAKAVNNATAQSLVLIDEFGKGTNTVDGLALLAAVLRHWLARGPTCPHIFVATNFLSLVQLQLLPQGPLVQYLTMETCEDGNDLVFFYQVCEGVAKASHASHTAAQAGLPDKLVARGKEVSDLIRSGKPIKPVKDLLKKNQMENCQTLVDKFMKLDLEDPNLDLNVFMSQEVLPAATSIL
UniProt P03897, whole entry, looked up: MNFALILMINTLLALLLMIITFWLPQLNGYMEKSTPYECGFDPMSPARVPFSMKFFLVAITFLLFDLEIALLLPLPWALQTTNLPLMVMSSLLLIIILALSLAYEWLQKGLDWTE

Tests used:
Assay in all cases: log2 fold change, soluble protein after heating vs DMSO (PISA); higher = thermal stabilisation; K562 lysate, 10 uM; active = over 0.2 and 3.5 SD of the protein, either way, in both replicates (recomputed)
nilotinib = compound: Cc1cn(-c2cc(NC(=O)c3ccc(C)c(Nc4nccc(-c5cccnc5)n4)c3)cc(C(F)(F)F)c2)cn1 [nilotinib]
Outline: (§1)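 To prepare the extract, K562 pellets were dounce-homogenised in PBS pH 7.4 with 1 mM MgCl2, giving crude material at 1 mg/mL protein. This was treated with 10 μM compound for 30 min, then heated in aliquots for 3 min over 48°C-58°C before pooling and addition of NP-40 to 0.5% at 4°C. Centrifugation at 21,000xg for 90 min left soluble protein in the supernatant, which TMTpro 16plex LC-MS/MS quantified with equalised channel sums. Results are log-two fold changes in thermal stability compared with solvent controls, from duplicates.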

[1] = compound: Cc1nc(Nc2n[nH]c3c2CN(C(=O)N[C@H](CN(C)C)c2ccccc2)C3(C)C)c2sccc2n1
Outline: as §1

dasatinib = compound: Cc1nc(Nc2ncc(C(=O)Nc3c(C)cccc3Cl)s2)cc(N2CCN(CCO)CC2)n1 [dasatinib]
Outline: as §1

[2] = compound: Cc1ncc(-c2ccnc(Nc3ccc(S(C)(=O)=O)cc3)n2)n1C(C)C
Outline: as §1

[3] = compound: Cn1cc(-c2ccc3c(c2)CCN3C(=O)Cc2cccc(C(F)(F)F)c2)c2c(N)ncnc21
Outline: as §1

quisinostat = compound: Cn1cc(CNCC2CCN(c3ncc(C(=O)NO)cn3)CC2)c2ccccc21 [quisinostat]
Outline: as §1

tipifarnib = compound: Cn1cncc1[C@@](N)(c1ccc(Cl)cc1)c1ccc2c(c1)c(-c1cccc(Cl)c1)cc(=O)n2C [tipifarnib]
Outline: as §1

[4] = compound: NC(=O)Nc1cc(-c2cccc(F)c2)sc1C(=O)N[C@H]1CCCNC1
Outline: as §1

[5] = compound: NC(=O)c1cnc(N[C@@H]2CCCC[C@@H]2N)nc1Nc1cccc(-n2nccn2)c1
Outline: as §1

[6] = compound: NC1(c2ccc(-c3nc4ccn5c(=O)[nH]nc5c4cc3-c3ccccc3)cc2)CCC1
Outline: as §1

Row | Target | log2 fold change (nilotinib) | log2 fold change [1] | log2 fold change (dasatinib) | log2 fold change [2] | log2 fold change [3] | log2 fold change (quisinostat) | log2 fold change (tipifarnib) | log2 fold change [4] | log2 fold change [5] | log2 fold change [6]
1 | MT-CO1 (UniProt P00395) | inactive: 0.053 | inactive: -0.002 | inactive: -0.018 | inactive: -0.078 | inactive: -0.005 | inactive: 0.038 | inactive: 0.032 | inactive: -0.107 | inactive: -0.08 | inactive: 0.007
2 | MSL1 (UniProt Q68DK7) | inactive: 0.038 | inactive: -0.098 | inactive: 0.058 | inactive: 0.005 | inactive: 0.004 | inactive: -0.208 | inactive: 0.033 | inactive: -0.03 | inactive: 0.012 | inactive: -0.013
3 | MRPS34 (UniProt P82930) | inactive: 0.043 | inactive: -0.052 | inactive: -0.023 | inactive: -0.068 | inactive: 0.02 | inactive: 0.05 | inactive: -0.01 | inactive: 0 | inactive: -0.02 | inactive: -0.039
4 | MTFR2 (UniProt Q6P444) | inactive: 0.083 | inactive: -0.042 | inactive: -0.047 | inactive: 0.072 | inactive: 0.006 | inactive: -0.056 | inactive: -0.004 | inactive: 0.026 | inactive: -0.069 | inactive: 0.035
5 | MRPS18B (UniProt Q9Y676) | inactive: -0.008 | inactive: 0.057 | inactive: -0.06 | inactive: -0.008 | inactive: -0.001 | inactive: -0.011 | inactive: -0.002 | inactive: -0.006 | inactive: 0.037 | inactive: -0.065
6 | MT-ND5 (UniProt P03915) | inactive: 0.058 | inactive: 0.056 | inactive: 0.061 | inactive: -0.026 | inactive: 0.005 | inactive: 0.019 | inactive: 0.016 | inactive: -0.018 | inactive: -0.026 | inactive: 0
7 | MTFR1 (UniProt Q15390) | inactive: 0.095 | inactive: -0.02 | inactive: 0 | inactive: -0.093 | inactive: -0.031 | inactive: -0.001 | inactive: -0.043 | inactive: 0.045 | inactive: 0.017 | inactive: -0.036
8 | MRPL55 isoform 2 (UniProt Q7Z7F7) | inactive: 0.099 | inactive: 0.008 | inactive: -0.067 | inactive: -0.073 | inactive: 0.05 | inactive: -0.017 | inactive: 0.04 | inactive: 0.133 | inactive: -0.021 | inactive: -0.039
9 | MRPS28 (UniProt Q9Y2Q9) | inactive: -0.08 | inactive: 0.048 | inactive: 0.003 | inactive: -0.005 | inactive: -0.014 | inactive: 0.042 | inactive: 0.003 | inactive: -0.002 | inactive: 0.065 | inactive: 0.005
10 | MRPL50 (UniProt Q8N5N7) | inactive: 0.001 | inactive: 0.033 | inactive: -0.027 | inactive: 0.106 | inactive: 0.057 | inactive: 0.035 | inactive: 0.038 | inactive: -0.044 | inactive: -0.026 | inactive: -0.022
11 | MTHFSD (UniProt Q2M296) | inactive: -0.014 | inactive: 0.052 | inactive: -0.05 | inactive: 0.018 | inactive: 0.269 | inactive: 0.078 | inactive: -0.042 | inactive: -0.053 | inactive: 0.007 | inactive: 0.104
12 | MTMR12 (UniProt Q9C0I1) | inactive: -0.051 | inactive: -0.004 | inactive: 0.024 | inactive: 0.001 | inactive: 0.014 | inactive: -0.02 | inactive: 0.013 | inactive: -0.013 | inactive: -0.007 | inactive: 0.008
13 | MTCH2 (UniProt Q9Y6C9) | inactive: 0.044 | inactive: -0.005 | inactive: 0 | inactive: -0.014 | inactive: -0.024 | inactive: -0.104 | inactive: 0.018 | inactive: 0 | inactive: -0.027 | inactive: 0.001
14 | MRTFB isoform 5 (UniProt Q9ULH7) | inactive: -0.023 | inactive: 0.016 | inactive: -0.028 | inactive: -0.006 | inactive: 0.006 | inactive: -0.026 | inactive: -0.035 | inactive: 0.01 | inactive: 0.01 | inactive: 0.013
15 | MRPS18A isoform 2 (UniProt Q9NVS2) | inactive: 0.031 | inactive: -0.022 | inactive: -0.054 | inactive: -0.033 | inactive: 0.006 | inactive: -0.012 | inactive: -0.026 | inactive: 0.036 | inactive: 0.014 | inactive: -0.065
16 | MSMO1 (UniProt Q15800) | inactive: 0.1 | inactive: -0.019 | inactive: 0.011 | inactive: 0.037 | inactive: 0.061 | inactive: 0.008 | inactive: -0.025 | inactive: -0.058 | inactive: 0.005 | inactive: -0.061

Two entries picked at random from the list so far:
Row | Target | log2 fold change (nilotinib) | log2 fold change [1] | log2 fold change (dasatinib) | log2 fold change [2] | log2 fold change [3] | log2 fold change (quisinostat) | log2 fold change (tipifarnib) | log2 fold change [4] | log2 fold change [5] | log2 fold change [6]
8 | MRPL55 isoform 2 (UniProt Q7Z7F7) | inactive: 0.099 | inactive: 0.008 | inactive: -0.067 | inactive: -0.073 | inactive: 0.05 | inactive: -0.017 | inactive: 0.04 | inactive: 0.133 | inactive: -0.021 | inactive: -0.039
9 | MRPS28 (UniProt Q9Y2Q9) | inactive: -0.08 | inactive: 0.048 | inactive: 0.003 | inactive: -0.005 | inactive: -0.014 | inactive: 0.042 | inactive: 0.003 | inactive: -0.002 | inactive: 0.065 | inactive: 0.005

Later entries:

Row | Target | log2 fold change (nilotinib) | log2 fold change [1] | log2 fold change (dasatinib) | log2 fold change [2] | log2 fold change [3] | log2 fold change (quisinostat) | log2 fold change (tipifarnib) | log2 fold change [4] | log2 fold change [5] | log2 fold change [6]
17 | MRPS18C (UniProt Q9Y3D5) | inactive: 0.031 | inactive: -0.059 | inactive: -0.033 | inactive: -0.011 | inactive: -0.078 | inactive: -0.021 | inactive: -0.002 | inactive: -0.009 | inactive: 0.018 | inactive: -0.042
18 | MRPL30 isoform 2 (UniProt Q8TCC3) | inactive: -0.048 | inactive: -0.066 | inactive: -0.038 | inactive: 0.047 | inactive: 0.03 | inactive: -0.13 | inactive: 0.052 | inactive: -0.007 | inactive: 0 | inactive: 0.039
19 | MRPL52 (UniProt Q86TS9) | inactive: 0.248 | inactive: -0.093 | inactive: -0.003 | inactive: 0.08 | inactive: -0.032 | inactive: 0.078 | inactive: -0.064 | inactive: -0.02 | inactive: 0.093 | inactive: -0.101
20 | MTRR isoform 1 (UniProt Q9UBK8) | inactive: 0.017 | inactive: -0.017 | inactive: 0.041 | inactive: 0.006 | inactive: 0.027 | inactive: -0.02 | inactive: 0.01 | inactive: 0.027 | inactive: 0.002 | inactive: 0.017
21 | MRPL51 (UniProt Q4U2R6) | inactive: -0.029 | inactive: -0.006 | inactive: -0.056 | inactive: -0.054 | inactive: -0.055 | active: 0.27 | inactive: -0.003 | inactive: 0.055 | inactive: -0.003 | inactive: 0.024
22 | MRPL42 (UniProt Q9Y6G3) | inactive: -0.005 | inactive: 0.052 | inactive: -0.092 | inactive: 0.043 | inactive: -0.039 | inactive: -0.051 | inactive: -0.136 | inactive: 0.08 | inactive: -0.029 | inactive: -0.097
23 | MRPS35 (UniProt P82673) | inactive: 0.053 | inactive: -0.055 | inactive: -0.026 | inactive: -0.052 | inactive: 0.019 | inactive: -0.06 | inactive: 0.025 | inactive: 0.016 | inactive: 0.009 | inactive: 0.039
24 | MRPL58 (UniProt Q14197) | inactive: -0.022 | inactive: 0.045 | inactive: -0.008 | inactive: -0.012 | inactive: 0.021 | inactive: 0.017 | inactive: 0.003 | inactive: 0.055 | inactive: 0.025 | inactive: -0.032
25 | MRPS2 (UniProt Q9Y399) | inactive: -0.05 | inactive: -0.057 | inactive: -0.003 | inactive: -0.117 | inactive: 0.075 | inactive: 0.024 | inactive: 0.009 | inactive: 0.062 | inactive: 0.02 | inactive: 0.05
26 | MSRA (UniProt Q9UJ68) |  |  |  |  |  |  |  |  | inactive: 0.074 | 
27 | MSH5 isoform 3 (UniProt O43196) |  |  | inactive: -0.077 |  | inactive: 0.304 | inactive: -0.554 |  | inactive: 0.037 | inactive: 0.082 | 
28 | MRPS15 (UniProt P82914) | inactive: -0.008 | inactive: -0.002 | inactive: -0.016 | inactive: -0.02 | inactive: -0.027 | inactive: -0.126 | inactive: 0.012 | inactive: 0.047 | inactive: -0.023 | inactive: -0.207
29 | MRPS14 (UniProt O60783) | inactive: -0.237 | inactive: -0.056 |  | inactive: 0.022 |  | inactive: -0.034 | inactive: 0.107 | inactive: -0.01 | inactive: -0.102 | 
30 | MT-ND3 (UniProt P03897) | inactive: 0.165 | inactive: 0.076 |  | inactive: -0.382 |  | inactive: 0.244 | inactive: -0.154 | inactive: -0.052 | inactive: -0.412 | inactive: 0.032
31 | MUC5AC (UniProt P98088) | inactive: 0.02 | inactive: 0.048 |  | inactive: 0.128 |  |  | active: -0.593 |  |  | 
